Results taken from US20110165170A1.
No constants are given. Whether binding was seen depends on the method and setting. Some entries that bind do so weakly or less than the wild type.

Chains of the proteins cited; added tags and fusions are not shown. Residues count along the entry.
UniProt P10923, residues 17-294: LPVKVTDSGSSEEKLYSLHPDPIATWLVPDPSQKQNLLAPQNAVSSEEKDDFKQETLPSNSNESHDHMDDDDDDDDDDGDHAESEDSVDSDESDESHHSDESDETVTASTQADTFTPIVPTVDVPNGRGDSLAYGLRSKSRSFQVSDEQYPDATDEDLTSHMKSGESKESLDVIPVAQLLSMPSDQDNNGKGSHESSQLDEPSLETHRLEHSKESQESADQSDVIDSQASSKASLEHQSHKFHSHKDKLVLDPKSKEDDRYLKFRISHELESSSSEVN

Biological target: endogenous mouse plasma Osteopontin (mouse) (UniProt P10923)
Experiment: in vivo complex formation: MDA-MB-435-Hal/Luc tumour-bearing SCID BALB/c mice dosed i.v. at 25 mg/kg; plasma treated overnight with Protein G magnetic beads to remove IgG-bound OPN; free versus total mouse OPN by commercial ELISA (R&D Systems)

binding | Binder
binds | MOR-6990 (full length human IgG2) (antibody, V domains shown) VH: QVQLVESGGGLVQPGGSLRLSCAASGFTFSNYVMHWVRQAPGKGLEWVSSIFGSGSDTYYADSVKGRFTISRDNSKNTLYLQMNSLRAEDTAVYYCARSASSGFGFAGYGIDSWGQGTLVTVSS VL: DIELTQPPSVSVAPGQTARISCSGDSLRYYYAHWYQQKPGQAPVLVIYDDNKRPSGIPERFSGSNSGNTATLTISGTQAEDEADYYCQSWDLFHSSVFGGGTKLTVLG
binds | MOR-6993 (full length human IgG2) (antibody, V domains shown) VH: QVQLVESGGGLVQPGGSLRLSCAASGFTFTTSSMHWVRQAPGKGLEWVSRISSHGSNTYYADSVKGRFTISRDNSKNTLYLQMNSLRAEDTAVYYCARDMYRGVYGFALWGQGTLVTVSS VL: DIELTQPPSVSVAPGQTARISCSGDAIRNYYVHWYQQKPGQAPVLVIYEDSDRPSGIPERFSGSNSGNTATLTISGTQAEDEADYYCQSYDKSNVVFGGGTKLTVLG
